{
  "source": "patent US20260272825A1",
  "about": "“LEVONORGESTREL AND COMPOSITIONS COMPRISING THE SAME” (CHEMO RESEARCH, S.L., priority 2023, published 2026)",
  "origin": "cited, not measured here",
  "key": {"[1]": {"test_system": "healthy female subjects aged 18-35 years with a BMI≥30 kg/m2", "conditions": "literature data"}, "[2]": {"test_system": "women", "conditions": "LNG 0.030 mg"}},
  "note": "At least one compound was matched to its structure with a doubt left.",
  "data": [
    {"molecule": "C#C[C@]1(O)CC[C@H]2[C@@H]3CCC4=CC(=O)CC[C@@H]4[C@H]3CC[C@@]21CC", "note": "[Levonorgestrel, levonorgestrel]", "values": [
      {"measurement": "Decrease in SHBG levels during treatment with LNG", "setting": "[1]", "result": 50, "unit": "%"},
      {"measurement": "Cycles with ovulation inhibited", "setting": "[2]", "result": 72, "unit": "%"}
    ]}
  ]
}
